{
  "source": "the supplement of paper PMC10382679",
  "parents": {"B1": {"name": "Rpb7; numbered along this chain (parent)", "chain": "MFFIKDLSLNITLHPSFFGPRMKQYLKTKLLEEVEGSCTGKFGYILCVLDYDNIDIQRGRILPTDGSAEFNVKYRAVVFKPFKGEVVDGTVVSCSQHGFEVQVGPMKVFVTKHLMPQDLTFNAGSNPPSYQSSEDVITIKSRIRVKIEGCISQVSSIHAIGSIKEDYLGAI"}},
  "key": {"[1]": {"variants_of": "B1", "test": "log2 fold change of mutant abundance, UV-irradiated vs unirradiated; higher = more UV resistant (enriched after UV)", "settings": "with Saccharomyces cerevisiae rad7Δ rad26Δ; UV dose (J/m2): 10; genetic background: rad7Δ rad26Δ rpb7Δ + plasmid RPB7 library; outgrowth: 10 cell divisions"}, "[2]": {"variants_of": "B1", "test": "NOISeq theta enrichment statistic, UV-irradiated vs unirradiated (dimensionless); higher = more UV resistant (enriched after UV)", "settings": "with Saccharomyces cerevisiae rad7Δ rad26Δ; UV dose (J/m2): 10; genetic background: rad7Δ rad26Δ rpb7Δ + plasmid RPB7 library; outgrowth: 10 cell divisions"}},
  "note": "Single values of this set are uncertain.",
  "data": [
    {"variant": "MFFIKDLSQNITLHPSFFGPRMKQYLKTKLLEEVEGSCTGKFGYILCVLDYDNIDIQRGRILPTDGSAEFNVKYRAVVFKPFKGEVVDGTVVSCSQHGFEVQVGPMKVFVTKHLMPQDLTFNAGSNPPSYQSSEDVITIKSRIRVKIEGCISQVSSIHAIGSIKEDYLGAI", "values": [
      {"measurement": "log2 fold change of mutant abundance", "setting": "[1]", "value": 0.711},
      {"measurement": "NOISeq theta enrichment statistic", "setting": "[2]", "value": 0.308}
    ]},
    {"variant": "MFFIKDLSLNITLHPSFFGPRMKQYLKTKLLEEVEGSCTGKFGYILCVLDYDNIDIQRGRILPTDGSAEFNVKYRAVVFKPFKGEVVDGTVVSCSQHGFEVKVGPMKVFVTKHLMPQDLTFNAGSNPPSYQSSEDVITIKSRIRVKIEGCISQVSSIHAIGSIKEDYLGAI", "values": [
      {"measurement": "log2 fold change of mutant abundance", "setting": "[1]", "value": -0.00216},
      {"measurement": "NOISeq theta enrichment statistic", "setting": "[2]", "value": -0.0191}
    ]},
    {"variant": "MFFIKDLSLNITLHPSFFGPRMKQFLKTKLLEEVEGSCTGKFGYILCVLDYDNIDIQRGRILPTDGSAEFNVKYRAVVFKPFKGEVVDGTVVSCSQHGFEVQVGPMKVFVTKHLMPQDLTFNAGSNPPSYQSSEDVITIKSRIRVKIEGCISQVSSIHAIGSIKEDYLGAI", "values": [
      {"measurement": "log2 fold change of mutant abundance", "setting": "[1]", "value": 0.259},
      {"measurement": "NOISeq theta enrichment statistic", "setting": "[2]", "value": 0.74}
    ]},
    {"variant": "MFFIKDLSLNITLHPSFFGPRMKQYLKTKLLEEVEGSCTGKFGYILCVLDYDNIDIQRGRILPTDGSAEFNVKYRAVVFKPFKGEVVDGTVVSCSQHGFEVQVGPMKVFVTKHLMPQDLTFNAGSNPPSYQSSEDVITIKSRIRVKIEYCISQVSSIHAIGSIKEDYLGAI", "values": [
      {"measurement": "log2 fold change of mutant abundance", "setting": "[1]", "value": 1.43},
      {"measurement": "NOISeq theta enrichment statistic", "setting": "[2]", "value": 0.717}
    ]},
    {"variant": "MFFIKDLSLNITLHPSFFGPRMKQYLQTKLLEEVEGSCTGKFGYILCVLDYDNIDIQRGRILPTDGSAEFNVKYRAVVFKPFKGEVVDGTVVSCSQHGFEVQVGPMKVFVTKHLMPQDLTFNAGSNPPSYQSSEDVITIKSRIRVKIEGCISQVSSIHAIGSIKEDYLGAI", "values": [
      {"measurement": "log2 fold change of mutant abundance", "setting": "[1]", "value": 0.221},
      {"measurement": "NOISeq theta enrichment statistic", "setting": "[2]", "value": 0.33}
    ]},
    {"variant": "MFFIKDLSLNITLHPSFFGPRMKQYLKTKLLEEVEGSCTGKFGYILCVLDYDNIDIQRGRILPTDGSAEFNVKYRAVVFKPFKGEVVDGTVVSCSQHGFEVQVGPMKMFVTKHLMPQDLTFNAGSNPPSYQSSEDVITIKSRIRVKIEGCISQVSSIHAIGSIKEDYLGAI", "values": [
      {"measurement": "log2 fold change of mutant abundance", "setting": "[1]", "value": -0.351},
      {"measurement": "NOISeq theta enrichment statistic", "setting": "[2]", "value": -0.274}
    ]},
    {"variant": "MFFIKDLSLNITLHPSFFGPRMKQYLKTKLLEEVEGSCTGKFGYILCVLDYDNIDIQRGRILPTDGSAEFNVKYRAVVFKPFKGEVVDGTVVSCSQHGFEVQVTPMKVFVTKHLMPQDLTFNAGSNPPSYQSSEDVITIKSRIRVKIEGCISQVSSIHAIGSIKEDYLGAI", "values": [
      {"measurement": "log2 fold change of mutant abundance", "setting": "[1]", "value": 0.0588},
      {"measurement": "NOISeq theta enrichment statistic", "setting": "[2]", "value": 0.0434}
    ]},
    {"variant": "MFFIKDLSLNITLHPSFFGPRMKQYLKTKLLEEVEGSCTGKFGYILCVLDYDNIDIQRGRILPTDGSAEFNVKYRAVVFKPFKGEVVDGTVVSCSQHGFEVQVGPMKVFVTKHLMPQDLTFNAGSNPPSYQSSEDVITIKSRIRVDIEGCISQVSSIHAIGSIKEDYLGAI", "values": [
      {"measurement": "log2 fold change of mutant abundance", "setting": "[1]", "value": 0.684},
      {"measurement": "NOISeq theta enrichment statistic", "setting": "[2]", "value": 0.4}
    ]},
    {"variant": "MFFIKDLSLNITLHPSFFGPRMKQYLKTKLLEEVEGSCTGKFGYILCVLDYDNIDIQRGRILPTDGSAEFNVKYRAVVFKPFKGEVVDGTVVSCSQHGFEVQVGPMKVFVTKHLMPQDLTFNAGSNPPSYQSSEDVITVKSRIRVKIEGCISQVSSIHAIGSIKEDYLGAI", "values": [
      {"measurement": "log2 fold change of mutant abundance", "setting": "[1]", "value": 0.0155},
      {"measurement": "NOISeq theta enrichment statistic", "setting": "[2]", "value": 0.0747}
    ]},
    {"variant": "MFFIKDLSLNITLHPSFFGPRMKQYLKTKLLEEVEGSCTGKFGYILCVLDYDNIDIQRGRILPTDGSAEFNVKYRAVVFKPFKGEVVDGTVVSCSQHGFEVQVGPMKVFVTKHLMPQDLTFNAGSNPPSYQSSEDVITIKSRIRVKIKGCISQVSSIHAIGSIKEDYLGAI", "values": [
      {"measurement": "log2 fold change of mutant abundance", "setting": "[1]", "value": -0.177},
      {"measurement": "NOISeq theta enrichment statistic", "setting": "[2]", "value": -0.256}
    ]},
    {"variant": "MFFIKDLSLNITLHPSFFGPRMKQYLKTKLLEEVEGSCTGLFGYILCVLDYDNIDIQRGRILPTDGSAEFNVKYRAVVFKPFKGEVVDGTVVSCSQHGFEVQVGPMKVFVTKHLMPQDLTFNAGSNPPSYQSSEDVITIKSRIRVKIEGCISQVSSIHAIGSIKEDYLGAI", "values": [
      {"measurement": "log2 fold change of mutant abundance", "setting": "[1]", "value": 0.392},
      {"measurement": "NOISeq theta enrichment statistic", "setting": "[2]", "value": 0.219}
    ]},
    {"variant": "MFFIKDLSLNITLHPSFFGPRMKQYLKTKLLEEVEGSCTGKFGYILCVLDYDNYDIQRGRILPTDGSAEFNVKYRAVVFKPFKGEVVDGTVVSCSQHGFEVQVGPMKVFVTKHLMPQDLTFNAGSNPPSYQSSEDVITIKSRIRVKIEGCISQVSSIHAIGSIKEDYLGAI", "values": [
      {"measurement": "log2 fold change of mutant abundance", "setting": "[1]", "value": -0.327},
      {"measurement": "NOISeq theta enrichment statistic", "setting": "[2]", "value": -0.134}
    ]},
    {"variant": "MFFIKDLSLNITLHPSFFGPRMKQYLKTKLLEEVEGSCTGKFGYILCVLDYDNIDIQSGRILPTDGSAEFNVKYRAVVFKPFKGEVVDGTVVSCSQHGFEVQVGPMKVFVTKHLMPQDLTFNAGSNPPSYQSSEDVITIKSRIRVKIEGCISQVSSIHAIGSIKEDYLGAI", "values": [
      {"measurement": "log2 fold change of mutant abundance", "setting": "[1]", "value": 0.052},
      {"measurement": "NOISeq theta enrichment statistic", "setting": "[2]", "value": 0.102}
    ]},
    {"variant": "MFFSKDLSLNITLHPSFFGPRMKQYLKTKLLEEVEGSCTGKFGYILCVLDYDNIDIQRGRILPTDGSAEFNVKYRAVVFKPFKGEVVDGTVVSCSQHGFEVQVGPMKVFVTKHLMPQDLTFNAGSNPPSYQSSEDVITIKSRIRVKIEGCISQVSSIHAIGSIKEDYLGAI", "values": [
      {"measurement": "log2 fold change of mutant abundance", "setting": "[1]", "value": 0.353},
      {"measurement": "NOISeq theta enrichment statistic", "setting": "[2]", "value": 0.319}
    ]},
    {"variant": "MFFIKDLSLNITLHPSFFGPRMKQYLKTKLLEEVEGSCTGKFGYILCVLDYDNIFIQRGRILPTDGSAEFNVKYRAVVFKPFKGEVVDGTVVSCSQHGFEVQVGPMKVFVTKHLMPQDLTFNAGSNPPSYQSSEDVITIKSRIRVKIEGCISQVSSIHAIGSIKEDYLGAI", "values": [
      {"measurement": "log2 fold change of mutant abundance", "setting": "[1]", "value": -0.618},
      {"measurement": "NOISeq theta enrichment statistic", "setting": "[2]", "value": -0.37}
    ]},
    {"variant": "MFFIKDLSLNITLHPSFFGPRMKQYLKTKLLEEVEGSCTGKFGYILCVLDYDNIDIQRGRILPTDGSAEFNVKYRAVVFKPFKGEVVDGTVVSLSQHGFEVQVGPMKVFVTKHLMPQDLTFNAGSNPPSYQSSEDVITIKSRIRVKIEGCISQVSSIHAIGSIKEDYLGAI", "values": [
      {"measurement": "log2 fold change of mutant abundance", "setting": "[1]", "value": 0.107},
      {"measurement": "NOISeq theta enrichment statistic", "setting": "[2]", "value": 0.138}
    ]},
    {"variant": "MFFIKDLSLNITLHPSFFGPRMKQYLKTKLLEEVEGSCTGKFGYILCVLDYDNIDIQRGRILPTDGSAEFNVKYRAVVFKPFKGEVVDGTVVSYSQHGFEVQVGPMKVFVTKHLMPQDLTFNAGSNPPSYQSSEDVITIKSRIRVKIEGCISQVSSIHAIGSIKEDYLGAI", "values": [
      {"measurement": "log2 fold change of mutant abundance", "setting": "[1]", "value": 0.0215},
      {"measurement": "NOISeq theta enrichment statistic", "setting": "[2]", "value": 0.0522}
    ]}
  ]
}
